Some results were stated once for a whole list of compounds, not compound by compound.
Tested on: BCE cells
Assay: Bovine capillary endothelial (BCE) cell proliferation assay
Details: TNP-470-equivalent, 72 h

CO[C@@H]1[C@H](OC(=O)NC(=O)CCl)CC[C@]2(CO2)[C@H]1[C@@]1(C)O[C@@H]1CC=C(C)C [TNP-470, O-(chloracetyl-carbamoyl) fumagillol]
doses that are cytotoxic: higher than 1 μg/ml
